2 molecules from article PMC12140329 can be followed below.

Chains of the proteins cited; added tags and fusions are not shown.
UniProt Q9P258: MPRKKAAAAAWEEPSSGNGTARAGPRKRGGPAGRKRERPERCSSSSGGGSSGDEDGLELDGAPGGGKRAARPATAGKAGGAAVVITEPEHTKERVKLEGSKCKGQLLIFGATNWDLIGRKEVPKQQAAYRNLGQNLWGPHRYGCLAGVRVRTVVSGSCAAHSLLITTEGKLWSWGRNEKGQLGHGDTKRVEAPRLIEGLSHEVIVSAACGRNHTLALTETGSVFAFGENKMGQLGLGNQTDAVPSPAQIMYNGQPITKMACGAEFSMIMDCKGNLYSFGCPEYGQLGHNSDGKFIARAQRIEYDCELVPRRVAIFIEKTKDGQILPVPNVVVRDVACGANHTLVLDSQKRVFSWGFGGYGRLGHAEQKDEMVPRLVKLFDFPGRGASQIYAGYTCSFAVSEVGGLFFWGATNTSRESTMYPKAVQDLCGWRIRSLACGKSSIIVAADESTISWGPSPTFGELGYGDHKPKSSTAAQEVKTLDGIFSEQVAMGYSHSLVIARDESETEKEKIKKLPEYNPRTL

These are yes or no findings as the source states them, for the method shown. Binding seen in cells or lysates may run through a third protein. These calls come from enrichment with a bait or labelling near it, and not all partners need be listed.

This assay deals with myc-RCC2 (wild-type RCC2) (human) (UniProt Q9P258). Put plainly: affinity purification with mass spectrometry; MDA-MB-231 transfected with myc-RCC2 for 48 h, MG132 at 25 mM for 3 h, immunoprecipitation with anti-myc antibodies, silver staining and mass spectrometry.

B1: HNRNPR (protein, UniProt O43390 1-633)
chain: MANQVNGNAVQLKEEEEPMDTSSVTHTEHYKTLIEAGLPQKVAERLDEIFQTGLVAYVDLDERAIDALREFNEEGALSVLQQFKESDLSHVQNKSAFLCGVMKTYRQREKQGSKVQESTKGPDEAKIKALLERTGYTLDVTTGQRKYGGPPPDSVYSGVQPGIGTEVFVGKIPRDLYEDELVPLFEKAGPIWDLRLMMDPLSGQNRGYAFITFCGKEAAQEAVKLCDSYEIRPGKHLGVCISVANNRLFVGSIPKNKTKENILEEFSKVTEGLVDVILYHQPDDKKKNRGFCFLEYEDHKSAAQARRRLMSGKVKVWGNVVTVEWADPVEEPDPEVMAKVKVLFVRNLATTVTEEILEKSFSEFGKLERVKKLKDYAFVHFEDRGAAVKAMDEMNGKEIEGEEIEIVLAKPPDKKRKERQAARQASRSTAYEDYYYHPPPRMPPPIRGRGRGGGRGGYGYPPDYYGYEDYYDDYYGYDYHDYRGGYEDPYYGYDDGYAVRGRGGGRGGRGAPPPPRGRGAPPPRGRAGYSQRGAPLGPPRGSRGGRGGPAQQQRGRGSRGSRGNRGGNVGGKRKADGYNQPDSKRRQTNNQQNWGSQPIAQQPLQQGGDYSGNYGYNNDNQEFYQDTYGQQWK
As to B1, the binding entry is “binds”.

B2: NONO (protein, UniProt Q15233 1-471)
chain: MQSNKTFNLEKQNHTPRKHHQHHHQQQHHQQQQQQPPPPPIPANGQQASSQNEGLTIDLKNFRKPGEKTFTQRSRLFVGNLPPDITEEEMRKLFEKYGKAGEVFIHKDKGFGFIRLETRTLAEIAKVELDNMPLRGKQLRVRFACHSASLTVRNLPQYVSNELLEEAFSVFGQVERAVVIVDDRGRPSGKGIVEFSGKPAARKALDRCSEGSFLLTTFPRPVTVEPMDQLDDEEGLPEKLVIKNQQFHKEREQPPRFAQPGSFEYEYAMRWKALIEMEKQQQDQVDRNIKEAREKLEMEMEAARHEHQVMLMRQDLMRRQEELRRMEELHNQEVQKRKQLELRQEEERRRREEEMRRQQEEMMRRQQEGFKGTFPDAREQEIRMGQMAMGGAMGINNRGAMPPAPVPAGTPAPPGPATMMPDGTLGLTPPTTERFGQAATMEGIGAIGGTPPAFNRAAPGAEFAPNKRRRY
Consider B2, for which the binding result is on record as “binds”.
